These are yes or no findings as the source states them, for the method shown. For some of these results: Binding seen in cells or lysates may run through a third protein. Some binding calls cover weakened binding; strength is not graded here.
What was measured:
[1] = target: KICSTOR complex (Kaptin, ITFG2, C12orf66, SZT2) (UniProt Q9Y664); test: anti-FLAG IP of endogenous FLAG-Depdc5 from HEK-293T, compounds added to the immunoprecipitate, immunoblot for SZT2
[2] = target: KICSTOR complex (Kaptin, ITFG2, C12orf66, SZT2) (UniProt Q9Y664); test: anti-FLAG IP of endogenous FLAG-Depdc5 from HEK-293T, SAM or SAH added to the immunoprecipitate, immunoblot for SZT2
[3] = target: KICSTOR complex (Kaptin, ITFG2, C12orf66, SZT2) (UniProt Q9Y664); test: reciprocal co-immunoprecipitation: anti-FLAG IP of endogenous FLAG-Depdc5 blotted for SZT2, and of FLAG-Kaptin blotted for Nprl3, HEK-293T
[4] = target: KICSTOR complex (Kaptin, ITFG2, C12orf66, SZT2) (UniProt Q9Y664); test: reciprocal co-immunoprecipitation: anti-FLAG IP of transfected FLAG-Depdc5 blotted for SZT2, and of FLAG-Kaptin blotted for Nprl3, wild-type HEK-293T

Sequences of proteins named here, by UniProt entry; tags and fusion partners are left off. A change or cut given only in a name is not applied to a line headed by its entry.
UniProt Q9Y664: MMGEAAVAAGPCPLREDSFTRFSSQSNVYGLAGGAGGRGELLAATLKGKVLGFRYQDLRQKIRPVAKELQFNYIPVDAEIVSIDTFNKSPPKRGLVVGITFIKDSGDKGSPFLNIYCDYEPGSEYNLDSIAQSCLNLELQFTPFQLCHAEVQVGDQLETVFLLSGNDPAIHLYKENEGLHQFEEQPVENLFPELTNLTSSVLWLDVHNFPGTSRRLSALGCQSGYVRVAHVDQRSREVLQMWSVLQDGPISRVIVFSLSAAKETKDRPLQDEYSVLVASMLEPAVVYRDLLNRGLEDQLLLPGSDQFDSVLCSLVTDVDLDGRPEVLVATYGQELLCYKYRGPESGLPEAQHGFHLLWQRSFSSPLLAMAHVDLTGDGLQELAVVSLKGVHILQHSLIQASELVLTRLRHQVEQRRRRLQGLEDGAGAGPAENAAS
UniProt O75140: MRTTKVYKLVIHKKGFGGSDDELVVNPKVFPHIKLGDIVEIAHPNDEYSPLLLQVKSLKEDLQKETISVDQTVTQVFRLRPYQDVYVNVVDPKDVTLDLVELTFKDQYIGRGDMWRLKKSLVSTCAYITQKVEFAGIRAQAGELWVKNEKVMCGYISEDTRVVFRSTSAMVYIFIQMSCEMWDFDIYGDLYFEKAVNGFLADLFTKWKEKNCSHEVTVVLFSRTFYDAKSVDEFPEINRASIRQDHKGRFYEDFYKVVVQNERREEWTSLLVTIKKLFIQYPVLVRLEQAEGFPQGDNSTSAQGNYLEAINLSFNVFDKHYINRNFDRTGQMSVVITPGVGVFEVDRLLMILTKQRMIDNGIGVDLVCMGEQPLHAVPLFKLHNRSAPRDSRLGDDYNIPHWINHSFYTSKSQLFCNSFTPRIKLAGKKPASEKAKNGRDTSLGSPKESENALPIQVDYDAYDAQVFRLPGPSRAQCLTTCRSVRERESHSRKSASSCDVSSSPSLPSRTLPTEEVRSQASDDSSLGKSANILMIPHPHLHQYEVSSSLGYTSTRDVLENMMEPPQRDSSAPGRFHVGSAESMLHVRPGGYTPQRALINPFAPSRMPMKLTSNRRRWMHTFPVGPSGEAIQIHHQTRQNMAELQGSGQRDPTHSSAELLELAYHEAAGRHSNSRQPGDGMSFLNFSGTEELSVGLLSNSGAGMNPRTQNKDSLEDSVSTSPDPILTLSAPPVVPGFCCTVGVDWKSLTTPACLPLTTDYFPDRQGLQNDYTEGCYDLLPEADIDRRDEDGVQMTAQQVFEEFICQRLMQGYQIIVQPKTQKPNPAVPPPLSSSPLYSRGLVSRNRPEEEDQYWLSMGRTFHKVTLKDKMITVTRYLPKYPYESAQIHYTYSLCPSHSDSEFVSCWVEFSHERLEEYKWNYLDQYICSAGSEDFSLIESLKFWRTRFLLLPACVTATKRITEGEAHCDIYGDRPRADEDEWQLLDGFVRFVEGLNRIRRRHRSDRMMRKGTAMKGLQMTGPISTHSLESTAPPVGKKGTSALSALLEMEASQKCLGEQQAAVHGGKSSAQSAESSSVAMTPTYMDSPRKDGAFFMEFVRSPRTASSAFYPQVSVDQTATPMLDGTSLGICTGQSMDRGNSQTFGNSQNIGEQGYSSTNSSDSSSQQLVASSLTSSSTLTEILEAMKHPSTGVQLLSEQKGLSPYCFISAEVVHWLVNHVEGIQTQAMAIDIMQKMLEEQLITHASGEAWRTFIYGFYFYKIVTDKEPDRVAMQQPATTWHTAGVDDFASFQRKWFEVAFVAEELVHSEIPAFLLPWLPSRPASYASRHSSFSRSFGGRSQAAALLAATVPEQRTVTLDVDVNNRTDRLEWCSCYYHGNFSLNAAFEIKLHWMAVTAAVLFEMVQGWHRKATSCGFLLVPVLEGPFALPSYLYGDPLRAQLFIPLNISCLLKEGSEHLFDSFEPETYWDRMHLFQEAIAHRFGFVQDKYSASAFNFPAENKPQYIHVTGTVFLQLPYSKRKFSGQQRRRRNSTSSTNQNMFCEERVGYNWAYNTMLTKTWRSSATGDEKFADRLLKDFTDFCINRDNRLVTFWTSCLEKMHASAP

Measured: binding

GATOR1 complex (Depdc5, Npr13, Npr12) (from UniProt O75140 1-1603; Q12980 1-569; Q8WTW4 1-380)
binds: all assays above

— patent publication US20190234942A1
